# Values quoted from earlier work, collected in US8557770B2, “Method of preventing or reducing scarring of human skin” (Pharmecosse Ltd., priority 2000, dated 2013).
# For at least one compound, name, drawing or mass did not settle the structure.
# Key:
# myoblasts = settings: after 5 days; cited from earlier work
# [1] = tested on: IRS-1 dependent PI-3 kinase activity; settings: 5 day treatment; cited from earlier work
compound,measurement,setting,value
Cc1c(C)c2c(c(C)c1O)CCC(C)(COc1ccc(CC3SC(=O)NC3=O)cc1)O2 (centres unmarked) [Troglitazone],α-smooth muscle actin expression,myoblasts,reduce α-smooth muscle actin expression
same,Effect of insulin on IRS-1 dependent PI-3 kinase activity,[1],potentiate the effect of insulin
